Source: PMC7237858
Results are given in words; binding and its absence hold for the method and conditions named. Binding seen in cells or lysates may run through a third protein. These calls come from enrichment with a bait or labelling near it, and not all partners need be listed.

Biological target: SRSP, bait of the interactomics analysis (human)
Experiment: affinity purification with mass spectrometry; interactomics analysis of SRSP-interacting proteins; nano-LC-MS/MS; proteins with FDR ≤1% and unique peptides ≥2 selected

binding: binds
B1: serine- and arginine-rich splicing factor 3 (SRSF3), identified by mass spectrometry among SRSP-interacting proteins (protein, UniProt P84103 1-164)
chain: MHRDSCPLDCKVYVGNLGNNGNKTELERAFGYYGPLRSVWVARNPPGFAFVEFEDPRDAADAVRELDGRTLCGCRVRVELSNGEKRSRNRGPPPSWGRRPRDDYRRRSPPPRRRSPRRRSFSRSRSRSLSRDRRRERSLSRERNHKPSRSFSRSRSRSRSNERK
